Assay results taken from the supplement of paper PMC12889115.
Some of the results follow. Values are raw readings; no control value is given beside them.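 First-pass screen: polymyxin B was added at a level that permeabilizes the Salmonella outer membrane while sparing the inner membrane. DMSO wells, with and without polymyxin B, defined maximum growth. Because plates differed from one another, each plate's data were ranked separately and the compounds with the lowest OD600 were carried forward as hits.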

System: Salmonella enterica serovar Typhimurium SL1344
Assay: bacterial growth OD600 after 18 h with compound and polymyxin B; higher = more bacterial growth (less inhibition)
Details: 50 µM, Mueller-Hinton broth

Row | SMILES | bacterial growth OD600 (polymyxin B 0.75 µg/mL) | bacterial growth OD600 (polymyxin B 1 µg/mL)
1 | Cn1cc(CCC(=O)N2CCOC(Cc3ccccc3Cl)C2)cn1 (stereo unspecified) | 0.956 | 
2 | COCc1ccc(CN(Cc2cccnc2)CC2CCCN(C3CCCCC3)C2)o1 (stereo unspecified) | 0.757 | 
3 | CCOC(=O)C1(CCc2ccccc2)CCN(Cc2ccc(COC)o2)CC1 |  | 0.866
4 | C/C=C(\C)CN1CCC(n2nccc2NC(=O)CC(C)C)CC1 | 0.724 | 
5 | Cc1cccc(C(=O)NC2CC(C)(C)Cc3nc(N4CCOCC4)ncc32)n1 (stereo unspecified) | 0.826 | 
6 | CCOc1ccc(CNC2CCCN(c3ncccn3)C2)cc1Cl (stereo unspecified) |  | 0.876
7 | Cc1noc(C)c1CCCNC(=O)c1ccc(N2CCN(CC3CC3)CC2)nc1 |  | 1.2
8 | Cc1ccn(CC(=O)N2CCCC(CCc3ccccc3C)C2)n1 (stereo unspecified) | 0.003 | 
9 | CN(C)c1ncccc1CNCc1ccc2c(c1)OCCO2 |  | 0.995
10 | O=C1CCC(C(=O)N2CCOCC2)CN1Cc1ccc(Cl)cc1 (stereo unspecified) |  | 0.953
11 | CN(c1ncccc1CNS(C)(=O)=O)C1CCCCC1 |  | 0
12 | Cc1ccc(OCCN(C)C(=O)C2CC23CCN(Cc2ccoc2)CC3)cc1 (stereo unspecified) | 0.891 | 
13 | CCOC(=O)C1(CC2CCCCO2)CCN(C(=O)/C=C/c2cccs2)CC1 (stereo unspecified) |  | 0.64
14 | CCc1ccc(CN(C)C(=O)C2CCC(=O)N(CCCN3CCOCC3)C2)nc1 (stereo unspecified) |  | 0.953
15 | O=C1N[C@H](C(=O)N2CCC3(CC2)CC3C(=O)NCCC2=CCCCC2)CS1 (stereo partly specified) | 0.91 | 
16 | COCc1ccc(CN2CCC(C(=O)Nc3cccc(-c4ccn[nH]4)c3)CC2)o1 | 0.799 | 
17 | CC1CN(Cc2cccc3ncccc23)Cc2cc(Cl)ccc2O1 (stereo unspecified) | 0.002 | 
18 | COc1ccccc1OCC(=O)NCC1CCCN(Cc2cccc(C)c2)C1 (stereo unspecified) |  | 0.827
19 | O=C(NCc1ccncn1)c1csc2nc(-c3ccc(C(F)(F)F)cc3)cn12 | 0.562 | 
20 | O=C(CCC1(Cc2ccc(Cl)cc2)CCC(=O)N1)NCC1CC1 (stereo unspecified) | 0.84 | 
21 | COCCC(=O)N1CCC(Oc2ccc(C(=O)NCc3cnc(C)cn3)cc2)CC1 |  | 0.836

3 compounds out of the list, ordered by heavy-atom count, low to high.
Row | SMILES | bacterial growth OD600 (polymyxin B 0.75 µg/mL) | bacterial growth OD600 (polymyxin B 1 µg/mL)
15 | O=C1N[C@H](C(=O)N2CCC3(CC2)CC3C(=O)NCCC2=CCCCC2)CS1 (stereo partly specified) | 0.91 | 
5 | Cc1cccc(C(=O)NC2CC(C)(C)Cc3nc(N4CCOCC4)ncc32)n1 (stereo unspecified) | 0.826 | 
2 | COCc1ccc(CN(Cc2cccnc2)CC2CCCN(C3CCCCC3)C2)o1 (stereo unspecified) | 0.757 | 
